# The list shows only some results of the screen, not a fair sample: it gathers tests that were run many times, whatever their T/C, doses with no T/C, and many T/C values between a quarter and a half above the control. Further doses and runs are listed elsewhere. T/C: endpoint of the treated group in % of that of the vehicle group. Some doses have a count of surviving animals in place of a T/C: the source files T/C as zero there, which appears to mark a toxic dose or a test without result, not a measured value. Some doses without a T/C left all or most animals alive at the check, yet need not have been tolerated: the source hardly ever lists a survival T/C far under the control, and the zero likely stands for such cases as well. Counts of survivors are from the toxicity check (mostly the fifth day) where no day follows; animals may have died later. Schedule codes are those of the source, taken here to give the interval after Q, in days (D) or hours (H), and the number of doses after X. Some doses were run more than once; their values stand side by side, smallest first. Some schedules carry Z or #; the key to these is not given. Some molecules as drawn cover several salts, stereoisomers or complexes of the source; a dose is that of the sample tested. Signs of the kind (2×) say how often a value occurs here. For survival time, this PubChem deposit counts one and a half times the control or more as active, and values a quarter to a half above the control carry no call in these data; other NCI protocols may use other cut-offs. Some T/C values carry the count of animals alive at the toxicity check (mostly the fifth day); where none is given, no animal had died by that day.
# System: L1210 leukemia ip in BDF1 mice, survival T/C
# Assay: NCI In Vivo Anticancer Drug Screen. Data for tumor model L1210 Leukemia (intraperitoneal) in B6D2F1 (BDF1) mice
# Settings: T/C endpoint: mean survival time, higher T/C = longer survival
# [1] = dose: 100.0 mg/kg/injection, schedule: Q01DX009 (ip), vehicle: saline with Tween-80
# [2] = dose: 200.0 mg/kg/injection, schedule: Q01DX009 (ip), vehicle: carboxymethylcellulose (CMC)
# [3] = dose: 100.0 mg/kg/injection, schedule: Q01DX009 (ip), vehicle: saline
# [4] = dose: 200.0 mg/kg/injection, schedule: Q04DX003 (ip), vehicle: saline
# [5] = dose: 200.0 mg/kg/injection, schedule: Q01DX009 (ip), vehicle: saline
# [6] = dose: 400.0 mg/kg/injection, schedule: Q01DX001 (ip), vehicle: saline
# [7] = dose: 200.0 mg/kg/injection, schedule: Q01DX009 (ip), vehicle: saline with Tween-80
# [8] = dose: 400.0 mg/kg/injection, schedule: Q01DX009 (ip), vehicle: saline with Tween-80
# [9] = dose: 100.0 mg/kg/injection, schedule: Q01DX009 (ip), vehicle: Klucel (hydroxypropylcellulose) (HPC)
# [10] = dose: 300.0 mg/kg/injection, schedule: Q01DX001 (ip), vehicle: saline
# [11] = dose: 200.0 mg/kg/injection, schedule: Q01DX009 (ip), vehicle: Klucel (hydroxypropylcellulose) (HPC)
# [12] = dose: 400.0 mg/kg/injection, schedule: Q04DX003 (ip), vehicle: saline
# [13] = dose: 400.0 mg/kg/injection, schedule: Q01DX009 (ip), vehicle: Klucel (hydroxypropylcellulose) (HPC)
smiles,measurement,setting,value
c1ccc2c(C(CCN3CCOCC3)(CCN3CCOCC3)CNC3=NCCN3)cccc2c1,survivor count,"dose: 50.0 mg/kg/injection, schedule: Q01DX009 (ip), vehicle: saline with Tween-80",3 of 6
same,survivor count,[1],2 of 6
NC(N)=N/N=C(/c1ccccc1)c1ccc(F)cc1,T/C,"dose: 50.0 mg/kg/injection, schedule: Q01DX009 (ip), vehicle: carboxymethylcellulose (CMC)",134 % of control [5 of 6 alive]
same,survivor count,"dose: 60.0 mg/kg/injection, schedule: Q01DX Z (ip), vehicle: saline",2 of 6
same,survivor count,"dose: 60.0 mg/kg/injection, schedule: Q01DX Z (oral), vehicle: saline",6 of 6
same,T/C,"dose: 80.0 mg/kg/injection, schedule: Q01DX001 (ip), vehicle: other",128 % of control
same,survivor count,"dose: 80.0 mg/kg/injection, schedule: Q01DX009 (ip), vehicle: other",0 of 6
same,T/C,"dose: 100.0 mg/kg/injection, schedule: Q01DX009 (ip), vehicle: carboxymethylcellulose (CMC)",136 % of control
same,survivor count,"dose: 120.0 mg/kg/injection, schedule: Q01DX Z (ip), vehicle: saline",0 of 6
same,survivor count,"dose: 120.0 mg/kg/injection, schedule: Q01DX Z (oral), vehicle: saline",5 of 6
same,survivor count,"dose: 160.0 mg/kg/injection, schedule: Q01DX001 (ip), vehicle: other",2 of 6
same,survivor count,"dose: 160.0 mg/kg/injection, schedule: Q01DX009 (ip), vehicle: carboxymethylcellulose (CMC)",0 of 6
same,survivor count,"dose: 160.0 mg/kg/injection, schedule: Q01DX009 (ip), vehicle: other",0 of 6
same,survivor count,[2],0 of 6
same,survivor count,"dose: 400.0 mg/kg/injection, schedule: Q01DX009 (ip), vehicle: carboxymethylcellulose (CMC)",0 of 6
C1CCc2nnnn2CC1,survivor count,"dose: 50.0 mg/kg/injection, schedule: Q01DX009 (ip), vehicle: saline",1 of 6
same,survivor count,"dose: 70.0 mg/kg/injection, schedule: Q01DX009 (ip), vehicle: saline",1 of 6
same,survivor count,[3],0 of 6
same,survivor count,"dose: 100.0 mg/kg/injection, schedule: Q04DX003 (ip), vehicle: saline",0 of 6 and 1 of 4
same,survivor count,"dose: 110.0 mg/kg/injection, schedule: Q01DX009 (ip), vehicle: saline",0 of 6
same,survivor count,"dose: 165.0 mg/kg/injection, schedule: Q01DX009 (ip), vehicle: saline",0 of 6
same,survivor count,[4],0 of 4 and 0 of 6
Nc1ncnc2c1cnn2Cc1ccc(Cl)cc1,survivor count,[5],5 of 6
same,survivor count,"dose: 400.0 mg/kg/injection, schedule: Q04DX003 (ip), vehicle: carboxymethylcellulose (CMC)",3 of 6
OCCNCCc1ccccc1,survivor count,"dose: 300.0 mg/kg/injection, schedule: Q01DX009 (ip), vehicle: carboxymethylcellulose (CMC)",0 of 6
N#CSCC(CCCCCCCCC(=O)O)SC#N (centres undefined),survivor count,"dose: 50.0 mg/kg/injection, schedule: Q04DX002 (ip), vehicle: saline with Tween-80",0 of 3
Cc1ccccc1N1CCN(CCC(=O)c2cc3ccccc3o2)CC1,survivor count,"dose: 38.0 mg/kg/injection, schedule: Q04DX003 (ip), vehicle: saline with Tween-80",3 of 5
same,survivor count,"dose: 75.0 mg/kg/injection, schedule: Q01DX001 (ip), vehicle: saline with Tween-80",0 of 6
COc1cc2cc(C)[nH]c2cc1OC,survivor count,[6],0 of 4
O=C(COc1ccc(Cl)cc1Cl)Nc1ccc(F)cc1,survivor count,[7],3 of 6
same,survivor count,[8],0 of 6
c1ccc2c3c(sc2c1)CNCC3,survivor count,[9],3 of 6
CCC[N+](C)(C)C1CCCCC1,survivor count,"dose: 150.0 mg/kg/injection, schedule: Q01DX001 (ip), vehicle: saline",0 of 6 and 2 of 6
same,survivor count,[10],0 of 6 (2×)
O=C1OC(c2ccccc2)=N/C1=C1\OC(=O)c2ccccc21,survivor count,[9],6 of 6
same,survivor count,[11],5 of 6
[Br][V]([Br])[Br],survivor count,"dose: 50.0 mg/kg/injection, schedule: Q01DX009 (ip), vehicle: saline sonified",3 of 6
same,survivor count,"dose: 100.0 mg/kg/injection, schedule: Q01DX009 (ip), vehicle: saline sonified",0 of 6
same,survivor count,[4],1 of 6
same,survivor count,[12],0 of 6
O=C1CSc2cc[nH]c21,survivor count,[11],5 of 6
same,survivor count,[13],0 of 6
CCCNC(=O)c1cc(NC(=O)Nc2ccc(C3=NCCN3)cc2)cc(NC(=O)Nc2ccc(C3=NCCN3)cc2)c1,T/C,"dose: 10.0 mg/kg/injection, schedule: Q01DX Z (ip), vehicle: carboxymethylcellulose (CMC)",137 % of control
same,T/C,"dose: 21.0 mg/kg/injection, schedule: Q01DX Z (ip), vehicle: carboxymethylcellulose (CMC)",128 % of control
same,survivor count,"dose: 84.0 mg/kg/injection, schedule: Q01DX Z (ip), vehicle: carboxymethylcellulose (CMC)",6 of 6
same,survivor count,"dose: 168.0 mg/kg/injection, schedule: Q01DX Z (ip), vehicle: carboxymethylcellulose (CMC)",4 of 6
O=C(NCCCNC(=O)Nc1ccc(C2=NCC(O)CN2)cc1)Nc1ccc(C2=NCC(O)CN2)cc1 (centres undefined),survivor count,"dose: 123.0 mg/kg/injection, schedule: Q01DX015 (ip), vehicle: methylcellulose (MC)",0 of 6
same,survivor count,"dose: 246.0 mg/kg/injection, schedule: Q01DX015 (ip), vehicle: methylcellulose (MC)",0 of 6
Cc1ccc(Cl)cc1NC(=O)N1C(C)CCCC1C (centres undefined),T/C,[1],"90, 102, 106 % of control"
same,survivor count,[1],2 of 6
same,survivor count,[7],"0 of 6, 1 of 3, 3 of 3, 6 of 6"
same,survivor count,"dose: 400.0 mg/kg/injection, schedule: Q01DX001 (ip), vehicle: saline with Tween-80",0 of 3
same,survivor count,[6],3 of 6
same,survivor count,[8],0 of 3 and 1 of 6
same,survivor count,"dose: 400.0 mg/kg/injection, schedule: Q04DX002 (ip), vehicle: saline with Tween-80",3 of 6
NC(N)=Nc1ccc(C(=O)Oc2ccc([N+](=O)[O-])cc2Cl)cc1,survivor count,[3],5 of 6
same,survivor count,[5],1 of 6
same,survivor count,"dose: 400.0 mg/kg/injection, schedule: Q01DX009 (ip), vehicle: saline",0 of 6
same,survivor count,[12],1 of 6
COc1cc(-c2nc(-c3ccc(N=Cc4ccc(N(CCOS(C)(=O)=O)CCOS(C)(=O)=O)cc4C)cc3)cs2)cc(OC)c1OC,T/C,"dose: 100.0 mg/kg/injection, schedule: Q04DX003 (ip), vehicle: saline with Tween-80, evaluated on day 20",127 and 140 % of control
same,T/C,"dose: 100.0 mg/kg/injection, schedule: Q04DX003 (ip), vehicle: saline with Tween-80, evaluated on day 30",93 and 132 % of control
same,survivor count,"dose: 400.0 mg/kg/injection, schedule: Q04DX003 (ip), vehicle: saline with Tween-80",3 of 6
CN1CCN(Cc2c(O)ccc3c2OC(C)(C)C2=C3CCCC2)CC1,survivor count,[6],0 of 6
CC(C)(N)CNCC(C)(C)N,survivor count,[6],1 of 6
Cc1cccc(C(=O)N(C)C(c2ccco2)P(=O)(c2ccccc2)c2ccccc2)c1 (centres undefined),survivor count,[2],6 of 6
COC1CCCNC1CC(=O)Cn1cnc2cc3c(cc2c1=O)OCO3 (centres undefined),survivor count,[10],2 of 6
S=C(NCCN1CCCC1)Nc1ccccc1,survivor count,[11],2 of 6
same,survivor count,[13],0 of 6
O=C(/C=C\c1ccc(/C=C/C(=O)Nc2cccc(C3=NCCCN3)c2)cc1)Nc1cccc(C2=NCCCN2)c1,T/C,"dose: 1.25 mg/kg/injection, schedule: Q01DX Z (ip), vehicle: carboxymethylcellulose (CMC)",129 % of control
same,T/C,"dose: 2.5 mg/kg/injection, schedule: Q01DX Z (ip), vehicle: carboxymethylcellulose (CMC)",129 % of control
same,survivor count,"dose: 7.5 mg/kg/injection, schedule: Q01DX Z (ip), vehicle: water",0 of 6
same,survivor count,"dose: 10.0 mg/kg/injection, schedule: Q01DX Z (ip), vehicle: water",0 of 6
same,survivor count,"dose: 15.0 mg/kg/injection, schedule: Q01DX Z (ip), vehicle: water",0 of 6
same,survivor count,"dose: 25.0 mg/kg/injection, schedule: Q01DX Z (ip), vehicle: water",0 of 6
